Data as given in PubChem BioAssay AID1224826 (NIAID, 2016)
The deposit covers about 17,000 reagents; this is an unselected part. Over the whole deposit, about 1,110 (6.6%) were called active. 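Active means lowered or raised reporter signal; replicate intensities are raw and not normalised per plate.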 A number with no mark means an inactive call.

- Assay: 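Knock-downs that raise or lower Tnf reporter signal after endotoxin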 (primary screen)
- Cell system: RAW264.7 G9 macrophages from mouse bearing reporters for p65 (GFP) and the Tnf promoter (mCherry)
- Reagent: siRNA pool against mouse genes, 100 nM
- Time to read-out: 16 h of LPS stimulation, after 2 days of siRNA transfection
- Treatment: bacterial lipopolysaccharide (Salmonella minnesota R595), 10 ng/ml
- Detection: 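Nuclear mCherry signal of the Tnf promoter reporter measured by imaging after background removal, scaled to each plate median and turned into robust z-scores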
- Reading the numbers: Tnf reporter robust z-score: higher = stronger Tnf promoter reporter signal after LPS; Tnf reporter intensity: higher = stronger Tnf promoter reporter signal
- Rule for the call: 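a well counts as active at a score of -1.3 or below (Tlr4 knock-down control median) or above 3 (raised signal); controls and wells holding fewer than 50 cells are excluded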
- Calls: active = Tnf reporter clearly lowered or raised; inactive = no clear change in Tnf reporter

gene | PubChem SID | Tnf reporter robust z-score | fewer than 50 cells in well | Tnf reporter intensity, replicate 1 | Tnf reporter intensity, replicate 2
Etnk1 | SID315475102 | 0.92 | enough cells in well | 262 | 202
Egfr | SID315466459 | -0.49 | enough cells in well | 182 | 116
Ywhag | SID315470078 | -0.3 | enough cells in well | 197 | 219
Peli3 | SID315479505 | 0.09 | enough cells in well | 189 | 145
Sack1a | SID315479444 | -1.09 | enough cells in well | 125 | 137
Stx3 | SID315469518 | -0.09 | enough cells in well | 102 | 92.3
Glt8d1 | SID315475325 | – | fewer than 50 cells per well; well left out of calls | 181 | 54.6
Fgf8 | SID315466673 | -1.53 (active) | enough cells in well | 120 | 117
Or6k4 | SID315480366 | 1.9 | enough cells in well | 185 | 162
Cited2 | SID315467986 | 2.24 | enough cells in well | 288 | 311
Npm2 | SID315481483 | – | fewer than 50 cells per well; well left out of calls | 99 | 81.8
Cysltr2 | SID315473972 | 0.85 | enough cells in well | 276 | 380
Fndc4 | SID315472090 | 0.68 | enough cells in well | 296 | 173
Tox4 | SID315480794 | -1.31 (active) | enough cells in well | 115 | 66.2
Ubqln4 | SID315476071 | -0.72 | enough cells in well | 170 | 129
Lyzl1 | SID315472966 | -0.5 | enough cells in well | 144 | 134
Birc2 | SID315465456 | 2.76 | enough cells in well | 245 | 360
Pard3 | SID315475964 | -0.3 | enough cells in well | 222 | 160
Supt3 | SID315476788 | 0.49 | enough cells in well | 376 | 208
Cyp2a5 | SID315466224 | 0.29 | enough cells in well | 251 | 230
Nsg2 | SID315468254 | 2.71 | enough cells in well | 328 | 313
Tbc1d17 | SID315479067 | – | fewer than 50 cells per well; well left out of calls | 56.9 | 51.5
Pafah1b2 | SID315468379 | -0.59 | enough cells in well | 209 | 134
Dact1 | SID315471969 | -0.89 | enough cells in well | 158 | 163
2310022A10Rik | SID315472392 | – | fewer than 50 cells per well; well left out of calls | 172 | 71.9
Atp5f1e | SID315472852 | – | fewer than 50 cells per well; well left out of calls | 170 | 58.2
Vmn1r75 | SID315477317 | – | fewer than 50 cells per well; well left out of calls | 54.7 | 53.4
Or8b44 | SID315480446 | -0.88 | enough cells in well | 70.8 | 72.5
Plxna2 | SID315468601 | 1.06 | enough cells in well | 181 | 70.9
Ttc14 | SID315472847 | -1.14 | enough cells in well | 74.9 | 52.3
Sh3bp5 | SID315470301 | -1.26 | enough cells in well | 168 | 117
Selenbp2 | SID315469167 | 0.04 | enough cells in well | 318 | 188
Igf2r | SID315467406 | -0.03 | enough cells in well | 245 | 178
Kcnmb4 | SID315471912 | -0.49 | enough cells in well | 176 | 98.5
Pcdh10 | SID315468405 | – | fewer than 50 cells per well; well left out of calls | 91.3 | 32.5
Ifna14 | SID315481958 | -0.4 | enough cells in well | 238 | 134
Aco2 | SID315465249 | -0.26 | enough cells in well | 190 | 168
Cenpx | SID315469510 | -0.94 | enough cells in well | 75.3 | 54.7
Serpinb9d | SID315469422 | -0.71 | enough cells in well | 78.3 | 60.5
Fbxw17 | SID315476783 | – | fewer than 50 cells per well; well left out of calls | 190 | 82.8
